# The other results are listed elsewhere or left out.
# Columns and labels:
# Experiment in all cases: glycan array binding signal (z-score within array); higher = stronger binding
# Conditions in all cases: glycan notation: IUPAC condensed, linker removed
# Gal(a1-3)Gal(b1-4)GlcNAc = target: Gal(a1-3)Gal(b1-4)GlcNAc
# Summary of the method: (§1)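 The binding signal is a Z-score computed within each array and averaged over linkers. Arrays of the same protein sequence at different concentrations or buffers were also averaged together. Data originate from 3228 arrays in the Consortium for Functional Glycomics database, kept only where the protein sequence was available.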
# [1] = target: Gal(a1-3)Gal(b1-4)GlcNAc(b1-2)Man
# Summary of the method: as §1
# [2] = target: Gal(a1-3)Gal(b1-4)GlcNAc(b1-2)Man(a1-3)[Gal(a1-3)Gal(b1-4)GlcNAc(b1-2)Man(a1-6)]Man(b1-4)GlcNAc(b1-4)GlcNAc
# Summary of the method: as §1
# [3] = target: Gal(a1-3)Gal(b1-4)GlcNAc(b1-3)GalNAc
# Summary of the method: as §1
# [4] = target: Gal(a1-3)Gal(b1-4)GlcNAc(b1-6)GalNAc
# Summary of the method: as §1
# [5] = target: Gal(a1-3)Gal(b1-4)[Fuc(a1-3)]GlcNAc
# Summary of the method: as §1
# [6] = target: Gal(a1-3)Gal(b1-4)[Fuc(a1-3)]GlcNAc(b1-2)Man(a1-3)[Gal(a1-3)Gal(b1-4)[Fuc(a1-3)]GlcNAc(b1-2)Man(a1-6)]Man(b1-4)GlcNAc(b1-4)GlcNAc
# Summary of the method: as §1
# Gal(a1-3)GalNAc = target: Gal(a1-3)GalNAc
# Summary of the method: as §1
# [7] = target: Gal(a1-3)[Gal(a1-4)]Gal(b1-4)GlcNAc
# Summary of the method: as §1
# [8] = target: Gal(a1-4)Gal(b1-3)GlcNAc(b1-2)Man(a1-3)[Gal(a1-4)Gal(b1-3)GlcNAc(b1-2)Man(a1-6)]Man(b1-4)GlcNAc(b1-4)GlcNAc
# Summary of the method: as §1
# Gal(a1-4)Gal(b1-4)Glc = target: Gal(a1-4)Gal(b1-4)Glc
# Summary of the method: as §1
# Gal(a1-4)Gal(b1-4)GlcNAc = target: Gal(a1-4)Gal(b1-4)GlcNAc
# Summary of the method: as §1
# [9] = target: Gal(a1-4)Gal(b1-4)GlcNAc(b1-2)Man(a1-3)[Gal(a1-4)Gal(b1-4)GlcNAc(b1-2)Man(a1-6)]Man(b1-4)GlcNAc(b1-4)GlcNAc
# Summary of the method: as §1
# [10] = target: Gal(a1-4)Gal(b1-4)GlcNAc(b1-3)Gal(b1-4)Glc
# Summary of the method: as §1
# Gal(a1-4)GlcNAc = target: Gal(a1-4)GlcNAc
# Summary of the method: as §1
# Gal(a1-6)Glc = target: Gal(a1-6)Glc
# Summary of the method: as §1
# Gal(b1-2)Gal = target: Gal(b1-2)Gal
# Summary of the method: as §1
# Gal(b1-3)Gal = target: Gal(b1-3)Gal
# Summary of the method: as §1
# Gal(b1-3)Gal(b1-4)GlcNAc = target: Gal(b1-3)Gal(b1-4)GlcNAc
# Summary of the method: as §1
# Gal(b1-3)GalNAc = target: Gal(b1-3)GalNAc
# Summary of the method: as §1
# [11] = target: Gal(b1-3)GalNAc(a1-3)[Fuc(a1-2)]Gal(b1-4)Glc
# Summary of the method: as §1
# [12] = target: Gal(b1-3)GalNAc(a1-3)[Fuc(a1-2)]Gal(b1-4)GlcNAc
# Summary of the method: as §1
# Gal(b1-3)GalNAc(b1-3)Gal = target: Gal(b1-3)GalNAc(b1-3)Gal
# Summary of the method: as §1
# [13] = target: Gal(b1-3)GalNAc(b1-3)Gal(a1-4)Gal(b1-4)Glc
# Summary of the method: as §1
# [14] = target: Gal(b1-3)GalNAc(b1-4)Gal(b1-4)Glc
# Summary of the method: as §1
# [15] = target: Gal(b1-3)GalNAc(b1-4)[Neu5Ac(a2-3)]Gal(b1-4)Glc
# Summary of the method: as §1
# Gal(b1-3)GlcNAc = target: Gal(b1-3)GlcNAc
# Summary of the method: as §1
# [16] = target: Gal(b1-3)GlcNAc(a1-3)Gal(b1-4)GlcNAc
# Summary of the method: as §1
# [17] = target: Gal(b1-3)GlcNAc(a1-6)Gal(b1-4)GlcNAc
# Summary of the method: as §1
# Gal(b1-3)GlcNAc(b1-2)Man = target: Gal(b1-3)GlcNAc(b1-2)Man
# Summary of the method: as §1
# [18] = target: Gal(b1-3)GlcNAc(b1-2)Man(a1-3)[Gal(b1-3)GlcNAc(b1-2)Man(a1-6)]Man(b1-4)GlcNAc(b1-4)GlcNAc
# Summary of the method: as §1
# [19] = target: Gal(b1-3)GlcNAc(b1-2)Man(a1-3)[Gal(b1-3)GlcNAc(b1-2)Man(a1-6)]Man(b1-4)GlcNAc(b1-4)[Fuc(a1-6)]GlcNAc
# Summary of the method: as §1
# [20] = target: Gal(b1-3)GlcNAc(b1-2)Man(a1-3)[GlcNAc(b1-4)][Gal(b1-3)GlcNAc(b1-2)Man(a1-6)]Man(b1-4)GlcNAc(b1-4)GlcNAc
# Summary of the method: as §1
# [21] = target: Gal(b1-3)GlcNAc(b1-2)[Gal(b1-3)GlcNAc(b1-6)]Man(a1-6)[Gal(b1-3)GlcNAc(b1-2)Man(a1-3)]Man(b1-4)GlcNAc(b1-4)GlcNAc
# Summary of the method: as §1
# [22] = target: Gal(b1-3)GlcNAc(b1-3)Gal(b1-3)GlcNAc
# Summary of the method: as §1
# [23] = target: Gal(b1-3)GlcNAc(b1-3)Gal(b1-4)Glc
# Summary of the method: as §1
# [24] = target: Gal(b1-3)GlcNAc(b1-3)Gal(b1-4)GlcNAc
# Summary of the method: as §1
# [25] = target: Gal(b1-3)GlcNAc(b1-3)Gal(b1-4)GlcNAc(b1-2)Man(a1-3)[Gal(b1-3)GlcNAc(b1-3)Gal(b1-4)GlcNAc(b1-2)Man(a1-6)]Man(b1-4)GlcNAc(b1-4)GlcNAc
# Summary of the method: as §1
# [26] = target: Gal(b1-3)GlcNAc(b1-3)Gal(b1-4)GlcNAc(b1-2)[Gal(b1-3)GlcNAc(b1-3)Gal(b1-4)GlcNAc(b1-6)]Man(a1-6)[Gal(b1-3)GlcNAc(b1-3)Gal(b1-4)GlcNAc(b1-2)Man(a1-3)]Man(b1-4)GlcNAc(b1-4)[Fuc(a1-6)]GlcNAc
# Summary of the method: as §1
# [27] = target: Gal(b1-3)GlcNAc(b1-3)Gal(b1-4)GlcNAc(b1-3)Gal(b1-4)GlcNAc(b1-2)[Gal(b1-3)GlcNAc(b1-3)Gal(b1-4)GlcNAc(b1-3)Gal(b1-4)GlcNAc(b1-6)]Man(a1-6)[Gal(b1-3)GlcNAc(b1-3)Gal(b1-4)GlcNAc(b1-3)Gal(b1-4)GlcNAc(b1-2)Man(a1-3)]Man(b1-4)GlcNAc(b1-4)[Fuc(a1-6)]GlcNAc
# Summary of the method: as §1
# [28] = target: Gal(b1-3)GlcNAc(b1-3)Gal(b1-4)GlcNAc(b1-6)[Gal(b1-3)GlcNAc(b1-3)]Gal(b1-4)Glc
# Summary of the method: as §1
# [29] = target: Gal(b1-3)GlcNAc(b1-3)Gal(b1-4)[Fuc(a1-3)]GlcNAc
# Summary of the method: as §1
# [30] = target: Gal(b1-3)GlcNAc(b1-3)Gal(b1-4)[Fuc(a1-3)]GlcNAc(b1-6)[Gal(b1-3)GlcNAc(b1-3)]Gal(b1-4)Glc
# Summary of the method: as §1
# [31] = target: Gal(b1-3)GlcNAc(b1-3)GalNAc
# Summary of the method: as §1
# [32] = target: Gal(b1-3)GlcNAc(b1-6)Gal(b1-4)GlcNAc
# Summary of the method: as §1
binder,measurement,setting,value
"Actd5 (Actinidia), P84527 (protein) ISSCNGPCRDLNDCDGQLICIKGKCNDDPQVGTHICRGTTHSHQPGGCKPSGTLTCRGKSYPTYDCSPPVTSSTPAKLTNNDFSEGGDDGGPSECDESYHNNNERIVALSTGWYNGGSRCGKMIRITASNGKSVSAKVVDECDSRHGCDKEHAGQPPCRNNIVDGSNAVWSALGLDKNVGVVDITWSMA",glycan array binding signal (z-score),Gal(a1-3)Gal(b1-4)GlcNAc,0.17
same,glycan array binding signal (z-score),[1],0.117
same,glycan array binding signal (z-score),[2],0.615
same,glycan array binding signal (z-score),[3],-0.529
same,glycan array binding signal (z-score),[4],-0.551
same,glycan array binding signal (z-score),[5],-1.11
same,glycan array binding signal (z-score),[6],2.94
same,glycan array binding signal (z-score),Gal(a1-3)GalNAc,-0.081
same,glycan array binding signal (z-score),[7],-0.412
same,glycan array binding signal (z-score),[8],0.431
same,glycan array binding signal (z-score),Gal(a1-4)Gal(b1-4)Glc,-0.25
same,glycan array binding signal (z-score),Gal(a1-4)Gal(b1-4)GlcNAc,0.019
same,glycan array binding signal (z-score),[9],2.59
same,glycan array binding signal (z-score),[10],-0.704
same,glycan array binding signal (z-score),Gal(a1-4)GlcNAc,-0.316
same,glycan array binding signal (z-score),Gal(a1-6)Glc,-0.59
same,glycan array binding signal (z-score),Gal(b1-2)Gal,-0.531
same,glycan array binding signal (z-score),Gal(b1-3)Gal,0.469
same,glycan array binding signal (z-score),Gal(b1-3)Gal(b1-4)GlcNAc,0.152
same,glycan array binding signal (z-score),Gal(b1-3)GalNAc,-0.497
same,glycan array binding signal (z-score),[11],-0.318
same,glycan array binding signal (z-score),[12],0.028
same,glycan array binding signal (z-score),Gal(b1-3)GalNAc(b1-3)Gal,-0.105
same,glycan array binding signal (z-score),[13],0.214
same,glycan array binding signal (z-score),[14],-0.526
same,glycan array binding signal (z-score),[15],-0.202
same,glycan array binding signal (z-score),Gal(b1-3)GlcNAc,-0.444
same,glycan array binding signal (z-score),[16],0.53
same,glycan array binding signal (z-score),[17],0.179
same,glycan array binding signal (z-score),Gal(b1-3)GlcNAc(b1-2)Man,0.719
same,glycan array binding signal (z-score),[18],0.859
same,glycan array binding signal (z-score),[19],-0.457
same,glycan array binding signal (z-score),[20],-0.559
same,glycan array binding signal (z-score),[21],0.722
same,glycan array binding signal (z-score),[22],-0.253
same,glycan array binding signal (z-score),[23],-1.27
same,glycan array binding signal (z-score),[24],-0.331
same,glycan array binding signal (z-score),[25],0.74
same,glycan array binding signal (z-score),[26],1.28
same,glycan array binding signal (z-score),[27],0.053
same,glycan array binding signal (z-score),[28],0.823
same,glycan array binding signal (z-score),[29],0.157
same,glycan array binding signal (z-score),[30],-0.679
same,glycan array binding signal (z-score),[31],0.675
same,glycan array binding signal (z-score),[32],-0.528

# Quoted at random: 3 entries already listed.
binder,measurement,setting,value
"Actd5 (Actinidia), P84527 (protein) ISSCNGPCRDLNDCDGQLICIKGKCNDDPQVGTHICRGTTHSHQPGGCKPSGTLTCRGKSYPTYDCSPPVTSSTPAKLTNNDFSEGGDDGGPSECDESYHNNNERIVALSTGWYNGGSRCGKMIRITASNGKSVSAKVVDECDSRHGCDKEHAGQPPCRNNIVDGSNAVWSALGLDKNVGVVDITWSMA",glycan array binding signal (z-score),Gal(a1-6)Glc,-0.59
same,glycan array binding signal (z-score),[31],0.675
same,glycan array binding signal (z-score),Gal(a1-4)Gal(b1-4)Glc,-0.25
